Experimental data: PubChem BioAssay AID1259425 (University of Nebraska Medical Center, 2018)
Aim: 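Seek colon cancer weak points whose silencing resembles KSR1 loss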 (primary screen). Cells: HCT116 human colon cancer cells. Reagent: siRNA pool against human genes, 50 nM siRNA. Measurement: 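After 50 nM siRNA pool, branched-DNA assay measures six marker transcripts per well, minus blank, normalised to the geometric mean of two housekeeping transcripts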. Scale: BNIP3L mRNA: higher = more BNIP3L transcript after knockdown; NDRG1 mRNA: higher = more NDRG1 transcript after knockdown; BNIP3 mRNA: higher = more BNIP3 transcript after knockdown; ALDOC mRNA: higher = more ALDOC transcript after knockdown.
Shown is one part, drawn at random, of about 14,000 reagents. Further read-outs or replicates are left out here. Not stated in the record: the time to read-out.

Gene | BNIP3L mRNA, set 1 | NDRG1 mRNA, set 1 | BNIP3 mRNA, set 1 | ALDOC mRNA, set 1
CISD1 | 0.0962 | 0.066 | 0.345 | 0.0365
TRAPPC1 | -0.0563 | 0.442 | 0.376 | -0.0232
INGX | 0.0498 | 0.0591 | 0.392 | 0.0131
POLR2F | 0.107 | 0.498 | 0.562 | -0.0339
AP5Z1 | 0.0987 | 0.351 | 0.212 | 0.0254
PPP2R3B | 0.099 | 0.336 | 0.205 | 0.0224
CUTC | 0.106 | 0.185 | 0.32 | 0.0296
ALDH8A1 | 0.0811 | 0.299 | 0.414 | 0.00984
SLC6A2 | 0.243 | 0.489 | 0.219 | 0.00524
LILRB2 | 0.0907 | 0.114 | 0.288 | 0.0177
CLN6 | 0.13 | 0.218 | 0.362 | 0.034
CD4 | 0.0496 | 0.0642 | 0.472 | 0.0143
FCER1A | 0.0517 | 0.202 | 0.175 | 0.0196
NAGA | 0.151 | 0.185 | 0.393 | 0.0338
NFKBIZ | 0.182 | 0.156 | 0.307 | 0.0287
GGA2 | 0.0739 | 0.838 | 0.377 | 0.0262
SNRPE | 0.254 | 1.09 | 0.245 | 0.0498
CHL1 | 0.102 | 0.196 | 0.368 | 0.033
HHLA2 | 0.0599 | 0.177 | 0.196 | 0.0193
IL3RA | 0.0965 | 0.163 | 0.372 | 0.0147
PCOLCE | 0.0985 | 0.136 | 0.373 | 0.00818
SCD5 | 0.128 | 0.23 | 0.261 | 0.0377
SALL2 | 0.0372 | 0.195 | 0.294 | 0.0381
PCDHB14 | 0.0872 | 0.195 | 0.34 | 0.0106
ZDHHC14 | 0.138 | 0.11 | 0.358 | 0.0585
BSND | 0.174 | 0.151 | 0.376 | 0.0482
MORC3 | 0.103 | 0.485 | 0.345 | 0.024
MED12 | 0.141 | 0.314 | 0.267 | 0.0534

Reformatted: 3 of the entries above.
Gene,"BNIP3L mRNA, set 1","NDRG1 mRNA, set 1","BNIP3 mRNA, set 1","ALDOC mRNA, set 1"
PPP2R3B,0.099,0.336,0.205,0.0224
CUTC,0.106,0.185,0.32,0.0296
ALDH8A1,0.0811,0.299,0.414,0.00984

Continued:
Gene | BNIP3L mRNA, set 1 | NDRG1 mRNA, set 1 | BNIP3 mRNA, set 1 | ALDOC mRNA, set 1
CAVIN2 | 0.106 | 0.101 | 0.231 | 0.00501
FPR2 | 0.193 | 0.568 | 0.382 | 0.0592
CTBS | 0.161 | 0.498 | 0.338 | 0.0225
HSPA8 | 0.0449 | 0.104 | 0.202 | 0.0204
ZFP2 | 0.212 | 0.476 | 0.751 | 0.055
SGK1 | 0.161 | 0.164 | 0.45 | 0.0209
ZNF414 | 0.192 | 0.299 | 0.24 | 0.122
DERL1 | 0.108 | 0.474 | 0.396 | 0.0698
CNOT1 | 0.108 | 0.744 | 0.485 | 0.0286
STK36 | 0.091 | 0.102 | 0.361 | 0.00891
MIA2 | 0.0741 | 0.738 | 0.258 | 0.022
ADI1 | 0.156 | 0.206 | 0.32 | 0.0415
ABCC13 | 0.0554 | 0.174 | 0.368 | 0.0297
VN1R1 | 0.1 | 0.111 | 0.242 | 0.0282
MED10 | 0.126 | 0.529 | 0.326 | 0.0284
MRPS15 | 0.127 | 0.23 | 0.174 | 0.00933
SNHG12 | 0.164 | 0.478 | 0.291 | 0.0686
OTUB2 | 0.123 | 0.235 | 0.272 | 0.0271
KISS1R | 0.169 | 0.116 | 0.277 | 0.0378
SDS | 0.214 | 0.68 | 0.401 | 0.109
MINDY3 | 0.113 | 0.174 | 0.328 | 0.0435
GPSM2 | 0.165 | 0.362 | 0.397 | 0.0208
KRTAP1-3 | 0.248 | 0.17 | 0.385 | 0.131
SNAP29 | 0.162 | 0.303 | 0.157 | 0.0383
MRPS30 | 0.0965 | 0.282 | 0.317 | 0.0169
PXN | 0.0773 | 0.275 | 0.115 | 0.00546
MSH2 | 0.128 | 0.111 | 0.395 | 0.0193
MAGEB1 | 0.0943 | 0.101 | 0.421 | 0.0166
INAVA | 0.052 | 0.4 | 0.536 | 0.0404
NUMA1 | 0.118 | 0.296 | 0.489 | 0.0153
TRHDE | 0.45 | 2.06 | 0.753 | 0.112
MAP6D1 | 0.207 | 0.088 | 0.318 | 0.0596
EPDR1 | 0.156 | 0.0657 | 0.284 | 0.0212
MARCHF4 | 0.14 | 0.317 | 0.37 | 0.0355
FLT4 | 0.229 | 0.226 | 0.459 | 0.0205
